We go through two molecules from article PMC7801380, “Development of phenotypic assays for identifying novel blockers of L-type calcium channels in neurons” (Scientific Reports, 2021).

The subject of assay [1] is L-type calcium channels (LTCCs). As to the kind of experiment: Calcium flux (FLIPR) assay, Bay K8644-induced responses in rat primary cortical cultures. The class given is cell-based. Conditions: PW library screen hit confirmation; 1.1 µM Bay K8644; holding [K+] 20 mM; read-out: FLIPR IC50 Rat cortical culture. A general note: Calcium flux is commonly read through the fluorescence of an indicator in the cells.

The next assay concerns the target DHP site. As to the kind of experiment: Rat cortex binding, DHP site ([3H]nitrendipine). Conditions: rat cortical homogenates; [3H]nitrendipine 0.1 nM. How it is done:
(§1) The in-vitro binding studies were conducted by Eurofins (France) using rat cortex. […] The IC50 values (the concentration that causes half-maximal inhibition of control specific binding) were determined by non-linear regression analysis of the competition curves using Hill equation: Y = […] Y = specific binding, A = left asymptote of the curve, D = right asymptote of the curve, C = compound concentration, and nH = slope factor. Analyses were performed using software developed at Eurofins (Hill software) and validated by comparison with data generated by the commercial software SigmaPlot 4.0. […] KD values were determined from Scatchard plots.

A further assay has as its target Benzothiazepine site. As to the kind of experiment: Rat cortex binding, benzothiazepine site ([3H]diltiazem). Conditions: rat cortical homogenates; [3H]diltiazem 15 nM. Here is the method:
as §1

The next assay has as its target Phenylalkylamine site. As to the kind of experiment: Rat cortex binding, phenylalkylamine site ([3H]D888). Conditions: rat cortical homogenates; [3H]D888 3 nM. Here is the method:
as §1

Usually IC50 stands for the concentration needed to halve the response being measured. One may read the Ki as a measure of affinity in units of concentration, obtained from inhibition or displacement. Read a low Ki as tighter binding.

Regarding `CN(C)CCCN1c2ccccc2CCc2ccc(Cl)cc21` [clomipramine], in assay [1], the IC50 was determined as 1010 nM.

Take `CN1CCC(=C2c3ccccc3C=Cc3ccccc32)CC1` [Cyproheptadine]: the inhibitory constant (Ki) worked out at 3.56 µM on DHP site, 2280 nM on Benzothiazepine site and 3.3 µM at Phenylalkylamine site. Further, in assay [1], the IC50 is 138 nM.
